No constants are given. Whether binding was seen depends on the method and setting. In cells and extracts the contact can be indirect. Some entries that bind do so weakly or less than the wild type. Values belong to the substance of their own block, whether it stands above or below them.
Assays:
His-PKM2 = His-PKM2 (UniProt P14618); experiment: co-IP; HK-2 cells transfected with epitope-tagged plasmids; lysates immunoprecipitated with tag antibodies (Flag, Myc, His), protein A/G beads, immunoblot
[1] = target: Lgals3 (endogenous, HK-2 cells) (human (endogenous in HK-2)) (UniProt P17931); experiment: co-IP; lysates of HK-2 cells immunoprecipitated with Lgals3 or PKM2 antibodies, immunoblot; endogenous proteins
Flag-Lgals3 [2] = target: Flag-Lgals3 (UniProt P17931); experiment: co-IP; HK-2 cells transfected with epitope-tagged plasmids; lysates immunoprecipitated with tag antibodies (Flag, Myc, His), protein A/G beads, immunoblot
Flag-Lgals3 [3] = target: Flag-Lgals3 (UniProt P17931); experiment: co-IP; 293T cells transfected with epitope-tagged plasmids; lysates immunoprecipitated with tag antibodies, protein A/G beads, immunoblot

By UniProt entry, the sequences of proteins in these tests, tags left out.
UniProt P14618: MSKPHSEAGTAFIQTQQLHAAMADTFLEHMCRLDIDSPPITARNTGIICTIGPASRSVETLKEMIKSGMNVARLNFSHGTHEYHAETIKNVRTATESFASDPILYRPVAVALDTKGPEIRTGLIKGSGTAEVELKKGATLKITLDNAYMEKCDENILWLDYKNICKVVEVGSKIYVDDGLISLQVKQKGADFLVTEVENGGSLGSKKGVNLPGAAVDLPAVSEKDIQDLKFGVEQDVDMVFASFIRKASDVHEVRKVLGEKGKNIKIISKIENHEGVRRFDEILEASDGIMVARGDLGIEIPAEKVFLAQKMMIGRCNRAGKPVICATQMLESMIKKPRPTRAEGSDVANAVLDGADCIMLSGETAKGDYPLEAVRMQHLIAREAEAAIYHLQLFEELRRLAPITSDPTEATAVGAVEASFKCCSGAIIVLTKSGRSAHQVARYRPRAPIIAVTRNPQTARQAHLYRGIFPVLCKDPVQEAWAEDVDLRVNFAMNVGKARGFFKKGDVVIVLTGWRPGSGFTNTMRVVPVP
UniProt P17931: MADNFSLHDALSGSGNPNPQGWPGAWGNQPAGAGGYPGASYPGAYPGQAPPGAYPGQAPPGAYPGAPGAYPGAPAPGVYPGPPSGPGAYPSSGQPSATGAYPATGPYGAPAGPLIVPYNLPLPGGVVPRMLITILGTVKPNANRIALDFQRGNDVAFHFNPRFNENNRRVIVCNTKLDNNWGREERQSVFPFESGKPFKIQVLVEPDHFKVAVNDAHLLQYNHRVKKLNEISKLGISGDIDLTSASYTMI
UniProt P19474: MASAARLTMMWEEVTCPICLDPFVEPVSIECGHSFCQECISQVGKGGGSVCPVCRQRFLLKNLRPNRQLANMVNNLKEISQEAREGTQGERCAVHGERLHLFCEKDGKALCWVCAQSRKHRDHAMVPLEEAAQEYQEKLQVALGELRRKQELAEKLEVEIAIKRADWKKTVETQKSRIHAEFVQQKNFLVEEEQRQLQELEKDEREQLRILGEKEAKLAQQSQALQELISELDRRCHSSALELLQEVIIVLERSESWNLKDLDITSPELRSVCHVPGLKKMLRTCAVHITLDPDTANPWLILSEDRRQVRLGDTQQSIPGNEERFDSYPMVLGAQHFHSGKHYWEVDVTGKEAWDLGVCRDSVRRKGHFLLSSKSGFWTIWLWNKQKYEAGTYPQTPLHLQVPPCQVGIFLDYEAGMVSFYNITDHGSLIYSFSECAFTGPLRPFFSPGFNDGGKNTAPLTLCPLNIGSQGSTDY

- binding (His-PKM2): binds
Substance: Myc-Trim21 (from UniProt P19474 1-475) (enzyme)

- binding [1]: binds
Substance: PKM2 (endogenous, HK-2 cells) (from UniProt P14618 1-531) (enzyme)

- binding (Flag-Lgals3 [2]): binds
- binding (Flag-Lgals3 [3]): binds
Substance: His-PKM2 (from UniProt P14618 1-531) (enzyme)

Reference: PMC11947994
